Values from PubChem BioAssay AID504791 (Drosophila RNAi Screening Center, 2011)

Assay: 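Genes of the fly required for silencing by miRNA, siRNA or endo-siRNA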 (primary screen)
Cell system: Drosophila S2-derived reporter cells
Knock-down reagent: long dsRNA against Drosophila genes, about 150-250 ng dsRNA per well (siRNA assay); about 80-120 ng (miRNA assay)
Time to read-out: about 5 days (siRNA assay); about 4 days (miRNA assay)
Treatment: copper sulfate induction of reporters: 25 µM (siRNA assay); 200 mM stated (miRNA assay), 1-2 days before reading
Read-out: 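Per-well ratio of Renilla over firefly light, expressed relative to that plate's average ratio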
Units: stable assay Renilla, run 1 in luminescence; stable assay firefly, run 1 in luminescence
Call rule: 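a well was a first-pass pick when its plate-scaled ratio rose above 1.5 (siRNA assay) or 1.6 (miRNA assay), or dropped below 0.6; a gene counted only if two separate dsRNAs agreed on retest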
In all, the deposit lists about 23,000 reagents; below is a random part of those with a known target gene and a result. Of all reagents, 199 (0.86%) got an active call. 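Plate-scaled ratios behind the calls are not deposited; printed light signals are raw; many rows marked increased or decreased are still called inactive.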 A number with no mark means an inactive call. The record does not give: the direction of the score.

target gene	DRSC id	stable siRNA reporter change	stable assay Renilla, run 1	stable assay firefly, run 1
CG4294	DRSC04460	reporter ratio raised past the hit cutoff (active)	21637	3.94e5
CheB74a	DRSC09503		5004	3.94e5
Cyp4g15	DRSC20240		5151	3.34e5
D	DRSC11132		8104	3.59e5
CG14903	DRSC15024		7200	4.93e5
comm	DRSC11336		9032	5.00e5
vers	DRSC10715	reporter ratio raised past the hit cutoff	7815	2.66e5
vers	DRSC23232		4475	2.93e5
Srp19	DRSC11288		7481	5.25e5
FoxL1	DRSC08717		5003	2.68e5
CG16903	DRSC18561		7963	3.78e5
Pcl	DRSC07503		8388	3.57e5
Hph	DRSC12164		11411	5.29e5
Hph	DRSC12251		6120	2.96e5
CG7579	DRSC10885		7950	3.54e5
CG32391	DRSC08865		4804	3.90e5
IFT52	DRSC03271		7847	4.38e5
CG7694	DRSC16288		6144	3.24e5
CG17637	DRSC11740		7735	3.85e5
obst-G	DRSC11103		5755	3.17e5

In a second layout: 5 of the entries above
{"target gene": "FoxL1", "DRSC id": "DRSC08717", "stable assay Renilla, run 1": 5003, "stable assay firefly, run 1": 2.68e5}
{"target gene": "CG16903", "DRSC id": "DRSC18561", "stable assay Renilla, run 1": 7963, "stable assay firefly, run 1": 3.78e5}
{"target gene": "Pcl", "DRSC id": "DRSC07503", "stable assay Renilla, run 1": 8388, "stable assay firefly, run 1": 3.57e5}
{"target gene": "Hph", "DRSC id": "DRSC12164", "stable assay Renilla, run 1": 11411, "stable assay firefly, run 1": 5.29e5}
{"target gene": "Hph", "DRSC id": "DRSC12251", "stable assay Renilla, run 1": 6120, "stable assay firefly, run 1": 2.96e5}

The listing continues:
target gene	DRSC id	stable siRNA reporter change	stable assay Renilla, run 1	stable assay firefly, run 1
Elp6	DRSC16571		7851	5.04e5
Pde6	DRSC16401		9808	5.73e5
Pde6	DRSC16402		6411	3.92e5
Pde6	DRSC16403		6851	3.13e5
beta-Spec	DRSC20311		6531	4.88e5
CG13919	DRSC08388		7038	3.28e5
CG10469	DRSC09729		5839	4.05e5
MP1	DRSC12124		6192	5.17e5
CG7387	DRSC10833		7778	3.88e5
Tsp29Fa	DRSC03232		6991	3.50e5
CCKLR-17D3	DRSC20015		6054	4.90e5
CCKLR-17D3	DRSC20017		6563	5.35e5
Fur2	DRSC19817		6055	5.62e5
Bka	DRSC02757		6874	4.67e5
